37 targets from the supplement of paper PMC11732987, “Enantioselective OTUD7B fragment discovery through chemoproteomics screening and high-throughput optimisation” (Communications Chemistry, 2025) can be followed below.

Amino acid sequences for entries named in this document (tags omitted). A change or cut given only in a name is not applied to a line headed by its entry. Residues count along the entry.
UniProt Q13686, 292-315: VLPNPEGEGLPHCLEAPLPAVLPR
UniProt O95433, 42-63: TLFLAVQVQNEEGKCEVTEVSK
UniProt Q9P2G1, 11-31: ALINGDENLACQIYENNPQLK
UniProt O60488, 361-380: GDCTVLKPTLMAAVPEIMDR
UniProt Q99798, 118-138: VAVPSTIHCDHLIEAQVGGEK
UniProt O00170: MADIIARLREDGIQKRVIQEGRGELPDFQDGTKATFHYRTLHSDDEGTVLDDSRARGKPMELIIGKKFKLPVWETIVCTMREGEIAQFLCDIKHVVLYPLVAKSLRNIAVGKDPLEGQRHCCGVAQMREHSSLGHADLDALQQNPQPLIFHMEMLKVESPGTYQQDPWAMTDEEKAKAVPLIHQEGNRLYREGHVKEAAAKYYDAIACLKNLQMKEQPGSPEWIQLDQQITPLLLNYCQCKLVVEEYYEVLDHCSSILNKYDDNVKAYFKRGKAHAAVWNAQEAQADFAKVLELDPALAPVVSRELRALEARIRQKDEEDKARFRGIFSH
UniProt P49419, 475-500: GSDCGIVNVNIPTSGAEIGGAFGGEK
UniProt Q9UKA4, 214-234: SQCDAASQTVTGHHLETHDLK
UniProt Q09666: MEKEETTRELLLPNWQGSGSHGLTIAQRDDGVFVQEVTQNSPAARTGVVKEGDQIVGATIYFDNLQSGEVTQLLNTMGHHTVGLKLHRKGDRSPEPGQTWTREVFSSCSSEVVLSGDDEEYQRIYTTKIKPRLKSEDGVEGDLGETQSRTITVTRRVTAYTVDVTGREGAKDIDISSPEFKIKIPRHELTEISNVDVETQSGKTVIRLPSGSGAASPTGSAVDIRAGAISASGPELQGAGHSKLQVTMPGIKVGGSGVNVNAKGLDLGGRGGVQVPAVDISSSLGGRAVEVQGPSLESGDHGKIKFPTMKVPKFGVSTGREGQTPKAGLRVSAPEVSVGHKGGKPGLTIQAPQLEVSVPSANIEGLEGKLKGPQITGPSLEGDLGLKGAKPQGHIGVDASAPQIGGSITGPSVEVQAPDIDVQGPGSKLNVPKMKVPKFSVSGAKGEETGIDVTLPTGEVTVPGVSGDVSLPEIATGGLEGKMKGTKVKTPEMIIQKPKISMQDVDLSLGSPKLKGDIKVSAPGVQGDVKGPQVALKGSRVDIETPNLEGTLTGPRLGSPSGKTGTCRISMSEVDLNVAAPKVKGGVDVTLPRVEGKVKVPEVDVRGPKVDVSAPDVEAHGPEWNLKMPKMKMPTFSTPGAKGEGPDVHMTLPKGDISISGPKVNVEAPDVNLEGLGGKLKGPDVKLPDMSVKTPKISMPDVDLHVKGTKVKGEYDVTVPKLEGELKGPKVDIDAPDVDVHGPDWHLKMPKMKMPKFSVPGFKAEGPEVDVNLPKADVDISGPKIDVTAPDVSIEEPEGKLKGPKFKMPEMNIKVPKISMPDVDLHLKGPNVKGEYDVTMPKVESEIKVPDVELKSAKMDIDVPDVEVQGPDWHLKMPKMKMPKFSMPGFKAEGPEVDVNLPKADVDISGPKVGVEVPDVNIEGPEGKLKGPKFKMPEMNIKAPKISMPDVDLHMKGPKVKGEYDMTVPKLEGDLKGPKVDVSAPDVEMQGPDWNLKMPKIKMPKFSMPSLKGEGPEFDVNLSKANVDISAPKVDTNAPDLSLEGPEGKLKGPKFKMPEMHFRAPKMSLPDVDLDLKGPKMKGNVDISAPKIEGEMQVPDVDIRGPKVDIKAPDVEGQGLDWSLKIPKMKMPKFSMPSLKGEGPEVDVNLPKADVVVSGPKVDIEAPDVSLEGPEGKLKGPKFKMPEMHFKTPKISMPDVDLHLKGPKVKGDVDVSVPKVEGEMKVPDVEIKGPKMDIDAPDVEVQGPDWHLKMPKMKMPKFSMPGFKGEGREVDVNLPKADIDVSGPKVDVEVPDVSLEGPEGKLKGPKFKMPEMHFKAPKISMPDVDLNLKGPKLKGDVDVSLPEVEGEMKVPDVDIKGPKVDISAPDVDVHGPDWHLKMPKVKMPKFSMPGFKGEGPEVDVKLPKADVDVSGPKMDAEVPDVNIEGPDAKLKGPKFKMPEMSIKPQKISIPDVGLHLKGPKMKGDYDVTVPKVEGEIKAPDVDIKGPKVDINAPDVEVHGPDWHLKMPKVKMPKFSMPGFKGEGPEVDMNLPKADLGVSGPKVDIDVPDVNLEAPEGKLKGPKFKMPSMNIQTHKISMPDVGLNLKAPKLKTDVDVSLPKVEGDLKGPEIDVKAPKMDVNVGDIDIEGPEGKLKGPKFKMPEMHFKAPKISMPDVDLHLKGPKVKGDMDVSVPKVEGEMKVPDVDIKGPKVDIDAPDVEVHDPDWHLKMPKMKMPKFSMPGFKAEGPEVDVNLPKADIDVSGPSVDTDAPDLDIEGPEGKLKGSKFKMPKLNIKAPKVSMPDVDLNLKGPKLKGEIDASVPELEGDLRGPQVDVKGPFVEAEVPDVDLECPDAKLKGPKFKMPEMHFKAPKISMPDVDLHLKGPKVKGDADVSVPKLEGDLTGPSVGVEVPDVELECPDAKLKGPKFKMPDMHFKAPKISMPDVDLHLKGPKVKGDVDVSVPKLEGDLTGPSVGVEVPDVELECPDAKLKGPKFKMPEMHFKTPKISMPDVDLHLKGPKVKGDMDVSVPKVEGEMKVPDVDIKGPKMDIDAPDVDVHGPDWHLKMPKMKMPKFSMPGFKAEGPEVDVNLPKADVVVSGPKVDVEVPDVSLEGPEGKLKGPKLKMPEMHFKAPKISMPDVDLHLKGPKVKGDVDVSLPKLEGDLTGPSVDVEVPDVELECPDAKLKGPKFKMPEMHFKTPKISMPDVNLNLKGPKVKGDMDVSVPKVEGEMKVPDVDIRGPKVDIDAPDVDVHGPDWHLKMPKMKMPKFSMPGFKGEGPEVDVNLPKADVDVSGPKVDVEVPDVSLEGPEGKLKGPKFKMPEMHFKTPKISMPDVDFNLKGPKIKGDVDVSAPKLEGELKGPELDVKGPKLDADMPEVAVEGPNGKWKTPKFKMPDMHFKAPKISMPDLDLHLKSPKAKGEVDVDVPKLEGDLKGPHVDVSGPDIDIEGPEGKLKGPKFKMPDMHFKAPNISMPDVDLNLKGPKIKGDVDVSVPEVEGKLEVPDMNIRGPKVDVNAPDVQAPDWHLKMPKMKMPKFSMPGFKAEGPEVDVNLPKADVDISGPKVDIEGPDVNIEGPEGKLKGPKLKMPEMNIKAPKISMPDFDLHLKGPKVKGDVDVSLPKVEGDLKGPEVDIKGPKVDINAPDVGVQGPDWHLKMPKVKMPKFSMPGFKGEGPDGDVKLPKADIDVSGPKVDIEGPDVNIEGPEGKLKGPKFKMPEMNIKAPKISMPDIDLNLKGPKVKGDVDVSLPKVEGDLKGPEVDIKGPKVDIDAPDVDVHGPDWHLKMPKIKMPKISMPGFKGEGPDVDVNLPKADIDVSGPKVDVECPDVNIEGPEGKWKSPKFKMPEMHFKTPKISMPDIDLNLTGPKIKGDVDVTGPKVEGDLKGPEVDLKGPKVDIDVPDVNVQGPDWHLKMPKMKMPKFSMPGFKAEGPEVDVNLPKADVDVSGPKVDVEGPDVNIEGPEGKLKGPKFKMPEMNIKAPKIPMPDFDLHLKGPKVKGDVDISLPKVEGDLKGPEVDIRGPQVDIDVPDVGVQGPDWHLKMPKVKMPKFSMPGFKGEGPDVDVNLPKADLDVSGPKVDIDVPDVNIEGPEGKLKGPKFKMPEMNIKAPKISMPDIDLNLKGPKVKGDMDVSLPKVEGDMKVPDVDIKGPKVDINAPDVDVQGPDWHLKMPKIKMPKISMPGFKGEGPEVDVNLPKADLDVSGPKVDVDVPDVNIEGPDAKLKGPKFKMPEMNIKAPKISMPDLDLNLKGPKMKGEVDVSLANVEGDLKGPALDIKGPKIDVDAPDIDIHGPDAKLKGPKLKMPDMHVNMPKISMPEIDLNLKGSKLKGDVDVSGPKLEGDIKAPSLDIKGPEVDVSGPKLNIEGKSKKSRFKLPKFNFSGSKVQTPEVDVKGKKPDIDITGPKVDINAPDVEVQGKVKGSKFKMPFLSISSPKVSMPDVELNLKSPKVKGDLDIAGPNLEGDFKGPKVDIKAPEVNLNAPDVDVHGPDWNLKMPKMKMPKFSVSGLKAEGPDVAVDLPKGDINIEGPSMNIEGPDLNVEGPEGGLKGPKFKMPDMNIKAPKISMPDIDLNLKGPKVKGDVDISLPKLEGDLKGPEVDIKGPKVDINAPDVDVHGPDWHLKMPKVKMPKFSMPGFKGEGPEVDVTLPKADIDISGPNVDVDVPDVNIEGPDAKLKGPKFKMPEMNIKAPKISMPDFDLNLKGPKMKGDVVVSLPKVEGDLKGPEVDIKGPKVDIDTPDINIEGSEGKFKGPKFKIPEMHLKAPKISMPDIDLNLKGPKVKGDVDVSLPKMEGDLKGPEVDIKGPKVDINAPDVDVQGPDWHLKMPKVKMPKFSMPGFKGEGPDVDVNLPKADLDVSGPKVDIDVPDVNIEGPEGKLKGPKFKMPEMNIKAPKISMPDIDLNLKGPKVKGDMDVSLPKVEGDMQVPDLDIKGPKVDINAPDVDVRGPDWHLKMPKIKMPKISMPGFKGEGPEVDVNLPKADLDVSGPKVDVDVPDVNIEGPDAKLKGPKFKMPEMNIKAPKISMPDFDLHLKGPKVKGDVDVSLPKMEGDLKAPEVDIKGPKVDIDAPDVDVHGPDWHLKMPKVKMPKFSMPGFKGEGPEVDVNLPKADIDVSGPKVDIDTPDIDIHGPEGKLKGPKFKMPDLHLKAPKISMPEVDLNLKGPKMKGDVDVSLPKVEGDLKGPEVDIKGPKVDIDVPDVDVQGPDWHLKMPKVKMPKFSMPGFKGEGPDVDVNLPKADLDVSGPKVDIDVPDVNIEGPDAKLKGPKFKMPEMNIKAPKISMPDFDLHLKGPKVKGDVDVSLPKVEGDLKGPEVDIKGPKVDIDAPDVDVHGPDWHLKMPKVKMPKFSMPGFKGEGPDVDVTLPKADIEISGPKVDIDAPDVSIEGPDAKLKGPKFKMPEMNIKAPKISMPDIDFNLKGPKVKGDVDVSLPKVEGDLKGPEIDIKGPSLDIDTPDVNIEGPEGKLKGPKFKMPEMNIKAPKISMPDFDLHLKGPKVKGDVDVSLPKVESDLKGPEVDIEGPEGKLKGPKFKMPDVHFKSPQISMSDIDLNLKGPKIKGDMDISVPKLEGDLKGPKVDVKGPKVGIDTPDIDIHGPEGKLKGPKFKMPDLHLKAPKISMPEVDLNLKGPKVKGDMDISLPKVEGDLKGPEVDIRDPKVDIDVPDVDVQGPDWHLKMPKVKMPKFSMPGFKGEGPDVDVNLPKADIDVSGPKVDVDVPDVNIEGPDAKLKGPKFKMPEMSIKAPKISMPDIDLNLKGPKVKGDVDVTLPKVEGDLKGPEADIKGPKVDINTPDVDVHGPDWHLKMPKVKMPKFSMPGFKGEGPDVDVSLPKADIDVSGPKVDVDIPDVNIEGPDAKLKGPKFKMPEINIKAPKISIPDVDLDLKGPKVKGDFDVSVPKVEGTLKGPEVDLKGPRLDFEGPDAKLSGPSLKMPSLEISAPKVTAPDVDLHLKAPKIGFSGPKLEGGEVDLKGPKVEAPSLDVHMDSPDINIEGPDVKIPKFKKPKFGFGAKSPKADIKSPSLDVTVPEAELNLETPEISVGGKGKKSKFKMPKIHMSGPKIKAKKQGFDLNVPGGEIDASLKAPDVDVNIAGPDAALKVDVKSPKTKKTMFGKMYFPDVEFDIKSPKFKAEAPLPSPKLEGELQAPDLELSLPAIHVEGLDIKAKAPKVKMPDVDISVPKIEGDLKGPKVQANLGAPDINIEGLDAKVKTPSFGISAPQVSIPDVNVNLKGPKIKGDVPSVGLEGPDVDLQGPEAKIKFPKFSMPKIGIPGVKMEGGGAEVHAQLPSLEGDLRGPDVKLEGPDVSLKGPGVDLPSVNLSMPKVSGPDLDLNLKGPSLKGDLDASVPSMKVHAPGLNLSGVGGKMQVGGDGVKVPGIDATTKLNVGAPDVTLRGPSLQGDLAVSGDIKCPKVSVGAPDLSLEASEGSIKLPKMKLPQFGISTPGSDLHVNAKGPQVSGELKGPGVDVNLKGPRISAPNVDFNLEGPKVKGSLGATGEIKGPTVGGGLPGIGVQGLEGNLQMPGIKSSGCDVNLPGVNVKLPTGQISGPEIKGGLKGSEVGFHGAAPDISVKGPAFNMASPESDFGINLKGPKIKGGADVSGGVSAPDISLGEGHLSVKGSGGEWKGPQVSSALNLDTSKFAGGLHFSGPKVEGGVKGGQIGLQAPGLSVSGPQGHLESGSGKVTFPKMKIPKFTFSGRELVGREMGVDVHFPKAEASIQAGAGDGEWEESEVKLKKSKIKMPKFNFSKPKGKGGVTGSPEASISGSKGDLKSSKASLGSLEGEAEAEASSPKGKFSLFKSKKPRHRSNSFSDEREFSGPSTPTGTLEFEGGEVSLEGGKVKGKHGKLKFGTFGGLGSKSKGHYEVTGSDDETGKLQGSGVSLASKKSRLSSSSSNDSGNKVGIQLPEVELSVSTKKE

The list shows a part of the results. The data scatter; read single values as rough.

Compound in the first experiment: ClCC(=O)N[C@@H]1CCCc2ccccc12
Kind of experiment: log2 mean competition ratio of IA-DTB cysteine labelling (DMSO/compound) (log2 ratio); higher = stronger cysteine engagement by compound. The following applies: 200 µM; treatment time: 4 h; cell line lysate: HEK293T. As for the experimental part:
(§1)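 IA-DTB competitive cysteine chemoproteomics in HEK293T RIPA lysate. Lysates were treated with compound 29 or 30 at 50 or 200 µM for 4 h, then IA-DTB (500 µM, 1 h), trypsin-digested, NeutrAvidin-enriched and analysed by diaPASEF. Competition ratio = intensity DMSO / intensity compound (n=4 treated, n=64 DMSO); binding: mean log2 CR ≥ 1 and p ≤ 0.05 plus QC filters. Target is the cysteine site.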
Consider AKAP9 C870 (UniProt Q99996), for which the “log2 mean competition ratio” value was -0.463.

For ALKBH1 C304 (UniProt Q13686), the “log2 mean competition ratio” value was determined as 0.0494.

In the case of ALG13 C132 (UniProt Q9NP73), the “log2 mean competition ratio” value was -0.145.

As to ACTR5 C48 (UniProt Q9H9F9), the “log2 mean competition ratio” value was -0.0775.

Regarding ACSL3 C166 (UniProt O95573), the “log2 mean competition ratio” value is -0.342.

Consider AHSA1 C56 (UniProt O95433), for which the “log2 mean competition ratio” value came out at 0.0328.

Consider AGPAT5 C252 (UniProt Q9NUQ2), for which the “log2 mean competition ratio” value is -0.0141.

On to ACSF2 C77 (UniProt Q96CM8), for which the “log2 mean competition ratio” value was -0.133.

For ALDOA C339, the “log2 mean competition ratio” value came out at 0.368.

Take ADNP C223 (UniProt Q9H2P0): the “log2 mean competition ratio” value stood at 0.405.

In the case of AKAP2 C205 (UniProt Q9Y2D5), the “log2 mean competition ratio” value came to 0.11.

As for ALDH1L2 C728 (UniProt Q3SY69), the “log2 mean competition ratio” value amounted to 0.375.

As to AJUBA C270 (UniProt Q96IF1), the “log2 mean competition ratio” value is 0.367.

As to AKAP13 C1414 (UniProt Q12802), the “log2 mean competition ratio” value is -0.267.

As for ADIPOR2 C96 (UniProt Q86V24), the “log2 mean competition ratio” value is -0.0615.

For the target AMOT C1047 (UniProt Q4VCS5), the “log2 mean competition ratio” value is -0.616.

Consider ANKIB1 C21 (UniProt Q9P2G1), for which the “log2 mean competition ratio” value was -0.00838.

Consider ACSL4 C363 (UniProt O60488), for which the “log2 mean competition ratio” value was -0.101.

With ALG2 C89 (UniProt Q9H553), the “log2 mean competition ratio” value turned out to be 0.0336.

AKAP17A C529 (UniProt Q02040): the “log2 mean competition ratio” value stood at 0.178.

Turning to AMOTL1 C623 (UniProt Q8IY63), the “log2 mean competition ratio” value worked out at 0.172.

In the case of ALPK1 C512 (UniProt Q96QP1), the “log2 mean competition ratio” value was -0.14.

For the target ACO2 C126 (UniProt Q99798), the “log2 mean competition ratio” value is -0.312.

As for AFAP1L1 C676 (UniProt Q8TED9), the “log2 mean competition ratio” value is -0.155.

ALG13 C242 (UniProt Q9NP73): the “log2 mean competition ratio” value turned out to be 0.198.

As for AIP C208 (UniProt O00170), the “log2 mean competition ratio” value was -0.07.

Consider AIFM1 C256 (UniProt O95831), for which the “log2 mean competition ratio” value was -0.0416.

As to AGTPBP1 C805 (UniProt Q9UPW5), the “log2 mean competition ratio” value was determined as 0.132.

Take AKAP13 C2685 (UniProt Q12802): the “log2 mean competition ratio” value was 0.0163.

Regarding ALDH7A1 C478 (UniProt P49419), the “log2 mean competition ratio” value was determined as 0.49.

Consider AHSA1 C301 (UniProt O95433), for which the “log2 mean competition ratio” value was -0.553.

For ANKFY1 C742 (UniProt Q9P2R3), the “log2 mean competition ratio” value was -0.153.

For the target AKAP11 C216 (UniProt Q9UKA4), the “log2 mean competition ratio” value was -0.164.

As for AHNAK C5502 (UniProt Q09666), the “log2 mean competition ratio” value was -0.116.

On to ADPRS C132, for which the “log2 mean competition ratio” value was 0.183.

For the target AGTPBP1 C971 (UniProt Q9UPW5), the “log2 mean competition ratio” value amounted to 0.213.

In the case of AFDN C870, the “log2 mean competition ratio” value was -0.292.

Compound in another experiment: ClCC(=O)N[C@H]1CCCc2ccccc12
Described as above. The conditions noted are these: 50 µM; treatment time: 4 h; cell line lysate: HEK293T. On the procedure:
as §1
For the target AKAP9 C870 (UniProt Q99996), the “log2 mean competition ratio” value came out at 0.227.

Regarding ALKBH1 C304 (UniProt Q13686), the “log2 mean competition ratio” value was -0.138.

In the case of ALG13 C132 (UniProt Q9NP73), the “log2 mean competition ratio” value is 0.0903.

As for ACTR5 C48 (UniProt Q9H9F9), the “log2 mean competition ratio” value is 0.285.

In the case of ACSL3 C166 (UniProt O95573), the “log2 mean competition ratio” value is -0.145.

In the case of AHSA1 C56 (UniProt O95433), the “log2 mean competition ratio” value was 0.12.

As to AGPAT5 C252 (UniProt Q9NUQ2), the “log2 mean competition ratio” value is -0.0113.

With ACSF2 C77 (UniProt Q96CM8), the “log2 mean competition ratio” value is -0.257.

Consider ALDOA C339, for which the “log2 mean competition ratio” value was determined as 0.141.

For ADNP C223 (UniProt Q9H2P0), the “log2 mean competition ratio” value was -0.23.

In the case of AKAP2 C205 (UniProt Q9Y2D5), the “log2 mean competition ratio” value is -0.317.

In the case of ALDH1L2 C728 (UniProt Q3SY69), the “log2 mean competition ratio” value is 0.219.

AJUBA C270 (UniProt Q96IF1): the “log2 mean competition ratio” value was 0.2.

For AKAP13 C1414 (UniProt Q12802), the “log2 mean competition ratio” value came out at 0.163.

As to ADIPOR2 C96 (UniProt Q86V24), the “log2 mean competition ratio” value came to 0.193.

AMOT C1047 (UniProt Q4VCS5): the “log2 mean competition ratio” value was found to be 0.367.

Take ANKIB1 C21 (UniProt Q9P2G1): the “log2 mean competition ratio” value is -0.258.

For the target ACSL4 C363 (UniProt O60488), the “log2 mean competition ratio” value is -0.311.

For ALG2 C89 (UniProt Q9H553), the “log2 mean competition ratio” value is -0.103.

On to AKAP17A C529 (UniProt Q02040), for which the “log2 mean competition ratio” value was determined as 0.152.

Consider AMOTL1 C623 (UniProt Q8IY63), for which the “log2 mean competition ratio” value is -0.101.

For ALPK1 C512 (UniProt Q96QP1), the “log2 mean competition ratio” value is 0.118.

Turning to ACO2 C126 (UniProt Q99798), the “log2 mean competition ratio” value is -0.117.

On to AFAP1L1 C676 (UniProt Q8TED9), for which the “log2 mean competition ratio” value was -0.412.

ALG13 C242 (UniProt Q9NP73): the “log2 mean competition ratio” value came out at 0.0251.

Consider AIP C208 (UniProt O00170), for which the “log2 mean competition ratio” value was determined as 0.281.

Consider AIFM1 C256 (UniProt O95831), for which the “log2 mean competition ratio” value came to 0.0395.

As to AGTPBP1 C805 (UniProt Q9UPW5), the “log2 mean competition ratio” value is -0.321.

Regarding AKAP13 C2685 (UniProt Q12802), the “log2 mean competition ratio” value was -0.164.

As for ALDH7A1 C478 (UniProt P49419), the “log2 mean competition ratio” value is -0.0466.

Take AHSA1 C301 (UniProt O95433): the “log2 mean competition ratio” value was found to be 0.0653.

As for ANKFY1 C742 (UniProt Q9P2R3), the “log2 mean competition ratio” value is -0.0849.

For the target AKAP11 C216 (UniProt Q9UKA4), the “log2 mean competition ratio” value was -0.27.

Regarding AHNAK C5502 (UniProt Q09666), the “log2 mean competition ratio” value was determined as 0.0061.

In the case of ADPRS C132, the “log2 mean competition ratio” value was -0.195.

Consider AGTPBP1 C971 (UniProt Q9UPW5), for which the “log2 mean competition ratio” value was -0.0381.

As to AFDN C870, the “log2 mean competition ratio” value was determined as 0.678.

The experiment is the same for the next values; noted with them: 200 µM; treatment time: 4 h; cell line lysate: HEK293T.
For AKAP9 C870 (UniProt Q99996), the “log2 mean competition ratio” value was -0.167.

Take ALKBH1 C304 (UniProt Q13686): the “log2 mean competition ratio” value was -0.155.

In the case of ALG13 C132 (UniProt Q9NP73), the “log2 mean competition ratio” value came out at 0.269.

Take ACTR5 C48 (UniProt Q9H9F9): the “log2 mean competition ratio” value was 0.00868.

In the case of ACSL3 C166 (UniProt O95573), the “log2 mean competition ratio” value was -0.404.

Take AHSA1 C56 (UniProt O95433): the “log2 mean competition ratio” value is -0.147.

AGPAT5 C252 (UniProt Q9NUQ2): the “log2 mean competition ratio” value is 0.173.

On to ACSF2 C77 (UniProt Q96CM8), for which the “log2 mean competition ratio” value was -0.145.

For ALDOA C339, the “log2 mean competition ratio” value was found to be 0.496.

Consider ADNP C223 (UniProt Q9H2P0), for which the “log2 mean competition ratio” value was 0.482.

As for AKAP2 C205 (UniProt Q9Y2D5), the “log2 mean competition ratio” value turned out to be 0.0392.

As to ALDH1L2 C728 (UniProt Q3SY69), the “log2 mean competition ratio” value stood at 0.083.

Consider AJUBA C270 (UniProt Q96IF1), for which the “log2 mean competition ratio” value is 0.168.

For the target AKAP13 C1414 (UniProt Q12802), the “log2 mean competition ratio” value amounted to 0.02.

As to ADIPOR2 C96 (UniProt Q86V24), the “log2 mean competition ratio” value was -0.00861.

In the case of AMOT C1047 (UniProt Q4VCS5), the “log2 mean competition ratio” value was -0.402.

As to ANKIB1 C21 (UniProt Q9P2G1), the “log2 mean competition ratio” value is -0.0541.

In the case of ACSL4 C363 (UniProt O60488), the “log2 mean competition ratio” value is -0.0851.

Take ALG2 C89 (UniProt Q9H553): the “log2 mean competition ratio” value is -0.0272.

For the target AKAP17A C529 (UniProt Q02040), the “log2 mean competition ratio” value was 0.481.

Regarding AMOTL1 C623 (UniProt Q8IY63), the “log2 mean competition ratio” value was -0.0921.

In the case of ALPK1 C512 (UniProt Q96QP1), the “log2 mean competition ratio” value was -0.299.

Turning to ACO2 C126 (UniProt Q99798), the “log2 mean competition ratio” value is -0.356.

As for AFAP1L1 C676 (UniProt Q8TED9), the “log2 mean competition ratio” value was -0.327.

With ALG13 C242 (UniProt Q9NP73), the “log2 mean competition ratio” value is 0.329.

Take AIP C208 (UniProt O00170): the “log2 mean competition ratio” value was -0.0187.

Turning to AIFM1 C256 (UniProt O95831), the “log2 mean competition ratio” value is -0.0971.

On to AGTPBP1 C805 (UniProt Q9UPW5), for which the “log2 mean competition ratio” value is -0.0823.

As for AKAP13 C2685 (UniProt Q12802), the “log2 mean competition ratio” value stood at 0.0487.

On to ALDH7A1 C478 (UniProt P49419), for which the “log2 mean competition ratio” value came to 0.0998.

Consider AHSA1 C301 (UniProt O95433), for which the “log2 mean competition ratio” value is -0.397.

Turning to ANKFY1 C742 (UniProt Q9P2R3), the “log2 mean competition ratio” value was -0.0497.

On to AKAP11 C216 (UniProt Q9UKA4), for which the “log2 mean competition ratio” value was -0.235.

As to AHNAK C5502 (UniProt Q09666), the “log2 mean competition ratio” value was -0.061.

Regarding ADPRS C132, the “log2 mean competition ratio” value was 0.105.

Turning to AGTPBP1 C971 (UniProt Q9UPW5), the “log2 mean competition ratio” value was found to be 0.196.

As to AFDN C870, the “log2 mean competition ratio” value was -0.066.
